# Literature values as cited in patent US20090075925A1, “Methods and Compositions Related to APOBEC-1 Expression” (priority 2006, published 2009).
# At least one structure is not confirmed: it was looked up by name or label, or the drawing left a doubt.
# Test system: AC
# Settings: activation of cAMP dependent kinases; cited from earlier work
smiles,measurement,value
C=C[C@@]1(C)CC(=O)[C@]2(O)[C@@]3(C)[C@@H](O)CCC(C)(C)[C@@H]3[C@H](O)[C@H](OC(C)=O)[C@@]2(C)O1 [Forskolin],EC50,4 µM
